Reference: article PMC11079228

Molecular target: Huntingtin-interacting protein 1 (rat) (rat (endogenous in rat FLS))
Experiment: affinity purification with mass spectrometry; rabbit anti-rat-HIP1 antibody (20 μg per sample) on Dynabeads M-270 Epoxy; total lysates of rat FLS (one DA and one R6 cell line, each in triplicate), starved 24 h, then PDGFβ 100 ng/mL 30 min; lysis in water with protease and phosphatase inhibitors by three freeze-thaw cycles; elution with 8 M urea, LysC and trypsin, nano-LC-MS/MS, label-free quantitation

binding: binds
B1: PSMD1 (protein, UniProt O88761 1-953)
chain: MITSAAGIISLLDEEEPQLKEFALHKLNAVVNDFWAEISESVDKIEVLYEDEGFRSRQFAALVASKVFYHLGAFEESLNYALGAGDLFNVNDNSEYVETIIAKCIDHYTKQCVENADLPEGEKKPIDQRLEGIVNKMFQRCLDDHKYKQAIGIALETRRLDVFEKTILESNDVPGMLAYSLKLCMSLMQNKQFRNKVLRVLVKIYMNLEKPDFINVCQCLIFLDDTQAVSDILEKLVKEDNLLMAYQICFDLYESASQQFLSSVIQNLRTVGTPIASVPGSTNTGTVPGPEKDSDSMETEEKTAGAVAGKTPDASPEPKDQTLKMIKILSGEMAIELHLQFLIRNNNTDLMILKNTKDAVRNSVCHTATVIANSFMHCGTTSDQFLRDNLEWLARATNWAKFTATASLGVIHKGHEKEALQLMATYLPKDTSPGSAYQEGGGLYALGLIHANHGGDIIDYLLNQLKNASNDIVRHGGSLGLGLAAMGTARQDVYDLLKTNLYQDDAVTGEAAGLALGLVMLGSKNTQAIEDMVGYAQETQHEKILRGLAVGIALVMYGRMEEADALIESLCRDKDPILRRSGMYTVAMAYCGSGNNKAIRRLLHVAVSDVNDDVRRAAVESLGFILFRTPEQCPSVVSLLSESYNPHVRYGAAMALGVCCAGTGNKEAINLLEPMTNDPVNYVRQGALIASALIMIQQTEITCPKVNQFRQLYSKVINDKHDDVMAKFGAILAQGILDAGGHNVTISLQSRTGHTHMPSVVGVLVFTQFWFWFPLSHFLSLAYTPTCIIGLNKDLKMPKVQYKSNCKPSTFAYPAPLEVPKEKEKEKVSTAVLSITAKAKKKEKEKEKKEEEKMEVDEAEKKEEKEKKKEPEPNFQLLDNPARVMPAQLKVLSMTETCRYQPFKPLSIGGIIILKDTSEDIEELVEPVAAHGPKIEEEEQEPEPPEPFEYIDD

These are yes or no findings as the source states them, for the method shown. In cells and extracts the contact can be indirect. A yes stands for co-enrichment or nearness to the bait. Other partners may have been found.
